Measured values reported in the supplement of paper PMC5770031.
The other results are listed elsewhere or left out. Repeats in this data set agree poorly, so a single value says little.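 ATM8/balancer (normal ATM) heterozygous flies were crossed on treated food; parents laid eggs 5–6 days, offspring developed ~12 days, so parents and larvae ingested compound. Readout: fraction of emerged adults homozygous for ATM8 versus 2% DMSO controls. Compounds were neutral at 10–20% homozygotes, harmful below 10%, helpful above 20%.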 Bridge positions count the residues as written; N and C are the ends. Square brackets hold non-standard residues; d marks the D form. Peptide text beside a SMILES is read from it. * marks the point of attachment. Ileψ(thiazoline)Cys = CC[C@H](C)[C@H](N)C1=N[C@H](C(=O)*)CS1; dOrn = NCCC[C@@H](N)C(=O)O

Each molecule was assayed on Drosophila melanogaster ATM8 (temperature-sensitive ATM allele) (assay: fraction of eclosed F1 progeny that are homozygous ATM8 (rescue of developmental lethality); higher = more rescue of ATM8 developmental lethality; extreme values may be limits of the assay). Details: compound concentration applied to food 0.2 mM; 21 °C.

| Compound | fraction of eclosed F1 progeny that are homozygous ATM8 |
| --- | --- |
| CC(=O)OC1CCC2(C)C(=CCC3C2CCC2(C)C(C(C)CCCC(C)C)CCC32)C1 (stereo not drawn) | 0.127 |
| C[C@]12CC[C@H](O)C[C@@H]1CC[C@@H]1[C@@H]2CC[C@]2(C)[C@@H](O)CC[C@@H]12 [5alpha-ANDROSTAN-3beta,17beta-DIOL] | 0.14 |
| C[C@H](CCC(=O)O)[C@H]1CC[C@H]2[C@@H]3[C@H](O)C[C@@H]4C[C@H](O)CC[C@]4(C)[C@H]3C[C@H](O)[C@]12C | 0.208 |
| O=c1ccc2cc(O)c(O)cc2o1 | 0.242 |
| Cc1c(OCC(F)(F)F)ccnc1C[S@@+]([O-])c1nc2ccccc2[nH]1 | 0.29 |
| COc1cc2c(N3CCN(C(=O)Nc4ccc(OC(C)C)cc4)CC3)ncnc2cc1OCCCN1CCCCC1 | 0.093 |
| Cc1cc(O)c2c(c1)C(=O)c1cccc(O)c1C2=O | 0.0923 |
| CC(C(=O)O)c1ccc(-c2ccccc2)c(F)c1 (stereo not drawn) | 0.15 |
| O=C(OCC(O)CO)c1ccccc1Nc1ccnc2cc(Cl)ccc12 (stereo not drawn) | 0.0811 |
| C[C@H]1O[C@@H](O[C@H]2[C@@H](O)C[C@H](O[C@H]3[C@@H](O)C[C@H](O[C@H]4CC[C@@]5(C)[C@H](CC[C@@H]6[C@@H]5C[C@@H](O)[C@]5(C)[C@@H](C7=CC(=O)OC7)CC[C@]65O)C4)O[C@@H]3C)O[C@@H]2C)C[C@H](O)[C@@H]1O | 0.114 |
| Cc1cccc(C)c1NC(=O)C(C)N (stereo not drawn) | 0.164 |
| O=C(O)C1CCCNC1 (stereo not drawn) | 0.0909 |
| CO/N=C(\C(=O)N[C@@H]1C(=O)N2C(C(=O)O)=C(CSc3nnnn3C)CS[C@H]12)c1csc(N)n1 | 0.111 |
| CC(C(=O)O)c1ccc2c(c1)[nH]c1ccc(Cl)cc12 (stereo not drawn) | 0.167 |
| O=C1c2c(O)cccc2C([C@@H]2O[C@H](CO)[C@@H](O)[C@H](O)[C@H]2O)c2cc(CO)cc(O)c21 (stereo partly drawn) | 0.121 |
| CN(C)C(=O)C(CCN1CCC(O)(c2ccc(Cl)cc2)CC1)(c1ccccc1)c1ccccc1 | 0.231 |
| COc1ccc(/C=C/C(=O)Nc2ccccc2C(=O)O)cc1OC | 0.0276 |
| Nc1ccncc1 | 0.122 |
| CCOC(=O)C1=C(COCCN)NC(C)=C(C(=O)OC)C1c1ccccc1Cl (stereo not drawn) | 0.368 |
| CC(=O)N1CCCC1C(=O)O (stereo not drawn) | 0.0789 |
| Oc1ccc(/C=C/c2cc(O)cc(O)c2)cc1 | 0.174 |
| Oc1c(Cl)cc(Cl)c(Cl)c1Cc1c(O)c(Cl)cc(Cl)c1Cl | 0.286 |
| Cc1c(N(C)C)c(=O)n(-c2ccccc2)n1C | 0.208 |
| COc1ccccc1OCC(O)CO (stereo not drawn) | 0.143 |

Three compounds out of the list, ordered by count of non-hydrogen atoms, smallest number first.

| Compound | fraction of eclosed F1 progeny that are homozygous ATM8 |
| --- | --- |
| Nc1ccncc1 | 0.122 |
| COc1ccc(/C=C/C(=O)Nc2ccccc2C(=O)O)cc1OC | 0.0276 |
| O=C1c2c(O)cccc2C([C@@H]2O[C@H](CO)[C@@H](O)[C@H](O)[C@H]2O)c2cc(CO)cc(O)c21 (stereo partly drawn) | 0.121 |

Next part.

| Compound | fraction of eclosed F1 progeny that are homozygous ATM8 |
| --- | --- |
| NC[C@@H]1O[C@H](O[C@H]2[C@@H](O)[C@H](O[C@@H]3[C@@H](O)[C@H](N)C[C@H](N)[C@H]3O[C@H]3O[C@H](CO)[C@@H](O)[C@H](O)[C@H]3N)O[C@@H]2CO)[C@H](N)[C@@H](O)[C@@H]1O | 0.0492 |
| CC[C@]1(O)C[C@H]2CN(CCc3c([nH]c4ccccc34)[C@@](C(=O)OC)(c3cc4c(cc3OC)N(C=O)[C@H]3[C@@](O)(C(=O)OC)[C@H](OC(C)=O)[C@]5(CC)C=CCN6CC[C@]43[C@@H]65)C2)C1 | 0.06 |
| COc1cc(C)c2c(c1C=O)Oc1c(c(C)c(O)c3c1C(O)OC3=O)OC2=O (stereo not drawn) | 0.104 |
| CC(=O)[C@H]1CC[C@H]2[C@@H]3C=CC4=CC(=O)CC[C@@]4(C)[C@@H]3CC[C@]12C | 0.0303 |
| Cc1cc(=O)[nH]c(=S)[nH]1 | 0.069 |
| CN(C)Cc1c[nH]c2ccccc12 | 0.164 |
| O=C(CCCCCCCC(=O)NCCO)NCCO | 0.156 |
| CN1[C@@H]2CC[C@H]1C[C@@H](OC(=O)c1c[nH]c3ccccc13)C2 | 0.2 |
| Oc1cc(O)c2c(c1)O[C@H](c1cc(O)c(O)c(O)c1)[C@H](O)C2 | 0.173 |
| Nc1ccn([C@H]2CC[C@@H](CO)O2)c(=O)n1 | 0.0682 |
| CN(C(=O)C(Cl)Cl)c1ccc(OC(=O)c2ccco2)cc1 | 0.0227 |
| O=C1c2ccc(O)c(O)c2C(=O)c2c(O)ccc(O)c21 | 0.1 |
| COc1cc(/C=C/C(N)=O)cc(OC)c1OC | 0.125 |
| C=CCNC(N)=S | 0.264 |
| CN(C)CCOC(C)(c1ccccc1)c1ccccn1 (stereo not drawn) | 0.0541 |
| CC(=O)c1ccc2c(c1)N(CCCN(C)C)c1ccccc1S2 | 0 |
| COc1ccc(-c2cc(=O)c3cc(OC)ccc3o2)cc1 | 0.174 |
| CC(C)(C#N)c1cc(Cn2cncn2)cc(C(C)(C)C#N)c1 | 0.0714 |
| C=CC(C1=CC(=O)C(OC)=CC1=O)c1ccc(OC)cc1 (stereo not drawn) | 0.105 |
| Oc1c(I)cc(Cl)c2cccnc12 | 0.417 |
| OC(CNCC(O)C1CCc2cc(F)ccc2O1)C1CCc2cc(F)ccc2O1 (stereo not drawn) | 0.22 |
| O=C(CCc1ccc(O)cc1)c1c(O)cc(O)cc1O | 0.189 |
| CC[C@H](C)[C@H](N)C1=N[C@H](C(=O)N[C@@H](CC(C)C)C(=O)N[C@H](CCC(=O)O)C(=O)N[C@H](C(=O)N[C@H]2CCCCNC(=O)[C@H](CC(N)=O)NC(=O)[C@@H](CC(=O)O)NC(=O)[C@H](Cc3cnc[nH]3)NC(=O)[C@@H](Cc3ccccc3)NC(=O)[C@H]([C@@H](C)CC)NC(=O)[C@@H](CCCN)NC2=O)[C@@H](C)CC)CS1 ({Ileψ(thiazoline)Cys}-L[dE]IK[dOrn]I[dF]H[dD]N; lactam 4-C) | 0.143 |
| COC(=O)[C@@H]1C[C@H](OC(C)=O)C(=O)[C@H]2[C@@]1(C)CC[C@H]1C(=O)O[C@H](c3ccoc3)C[C@]21C | 0.167 |

| Compound | fraction of eclosed F1 progeny that are homozygous ATM8 |
| --- | --- |
| CC[C@@H](C(N)=O)N1CCCC1=O | 0.0238 |
| CC(=O)NS(=O)(=O)c1ccc(NC(=O)c2ccccc2C(=O)O)cc1 | 0.149 |
| Cc1c[nH]c2ccccc12 | 0.182 |
| O=C(O)CCCc1ccc(N(CCCl)CCCl)cc1 | 0.133 |
| COc1ccc(OC)c(C(O)CNC(=O)CN)c1 (stereo not drawn) | 0.0168 |
| CC(S)C(=O)NCC(=O)O (stereo not drawn) | 0.19 |
| C=CC(C)(O)CCC1C(=C)CC(OC(C)=O)C2C(C)(C)CCCC12C (stereo not drawn) | 0.179 |
| CN1CCN(CCCN2c3ccccc3Sc3ccc(C(F)(F)F)cc32)CC1 | 0.0833 |
| CC[C@@]1(O)C[C@H](O)c2c(cc3c(c2O)C(=O)c2c(O)ccc(O)c2C3=O)[C@H]1C(=O)OC | 0.116 |
| CNC[C@H](O)c1ccc(O)c(O)c1 | 0.0789 |
| COC(=O)C[C@H]1C(C)(C)C2(O)OC34CC2C(=O)[C@]1(C)C3CC[C@]1(C)C4=CC(=O)O[C@H]1c1ccoc1 (stereo partly drawn) [8beta-HYDROXYCARAPIN, 3,8-HEMIACETAL] | 0.225 |
| Cn1c(=O)c2nc(C3CCCC3)[nH]c2n(C)c1=O | 0.136 |
| C=C1c2c(Cl)ccc(O)c2C(=O)C2=C(O)[C@]3(O)C(=O)C(C(N)=O)=C(O)[C@@H](N(C)C)[C@@H]3[C@@H](O)[C@H]12.O=C(O)c1cc(S(=O)(=O)O)ccc1O | 0.133 |
| CC(C)(C)NCC(O)COc1cccc2c1CCC(=O)N2 (stereo not drawn) | 0.0263 |
| O=C(O)c1cc(/N=N/c2ccc(O)c(C(=O)O)c2)ccc1O | 0.08 |
| O=C1C=C(O)C(=O)c2ccccc21 | 0.087 |
| COc1ccc2c(c1OC)C(=O)O[C@@H]2[C@H]1c2c(cc3c(c2OC)OCO3)CCN1C | 0.179 |
| CC(=O)NCCCS(=O)(=O)O | 0.263 |
| CCOC(=O)O[C@]1(C(=O)COC(=O)CC)CC[C@H]2[C@@H]3CCC4=CC(=O)C=C[C@]4(C)[C@H]3[C@@H](O)C[C@@]21C | 0.0303 |
| Cn1c(=O)[nH]c(=O)c2[nH]cnc21 | 0.143 |
| COc1ccc(-c2cc(=O)c3c(O)c(OC)c(O[C@@H]4O[C@H](CO[C@@H]5O[C@@H](C)[C@H](O)[C@@H](O)[C@H]5O)[C@@H](O)[C@H](O)[C@H]4O)cc3o2)cc1 | 0.163 |
| CC(=O)OCC1=C(C(=O)O)N2C(=O)[C@@H](NC(=O)CCCC(N)C(=O)O)C2SC1 (stereo partly drawn) | 0.0851 |
| O=C(C1CCCCC1)N1CC(=O)N2CCc3ccccc3C2C1 (stereo not drawn) | 0.143 |
| O=C(O)[C@@H](O)[C@H](O)[C@H](O)[C@@H](O)C(=O)O | 0.0274 |

2 records drawn at random from the list so far, as already listed:

| Compound | fraction of eclosed F1 progeny that are homozygous ATM8 |
| --- | --- |
| CC(=O)NCCCS(=O)(=O)O | 0.263 |
| CC(=O)NS(=O)(=O)c1ccc(NC(=O)c2ccccc2C(=O)O)cc1 | 0.149 |

(more compounds)

| Compound | fraction of eclosed F1 progeny that are homozygous ATM8 |
| --- | --- |
| OC[C@H]1O[C@H](O[C@]2(CCl)O[C@H](CCl)[C@@H](O)[C@@H]2O)[C@H](O)[C@@H](O)[C@H]1Cl | 0.0833 |
| CC1(C)C=Cc2c(c3c(c4c(=O)c(-c5ccc(O)c(O)c5)coc24)OC(C)(C)CC3)O1 | 0.108 |
| COc1ccc2c(c1)c(CC(=O)O)c(C)n2C(=O)c1ccc(Cl)cc1 | 0.156 |
| Nc1nc2ccc(OC(F)(F)F)cc2s1 | 0 |
| CC[C@H]1C(=O)OC[C@@H]1Cc1cncn1C | 0.155 |
| Oc1noc2c1CCNC2 | 0.194 |
| CCOC(=O)COc1ccc2c(=O)cc(-c3ccccc3)oc2c1 | 0.233 |
| COc1c(CC(=O)c2cc3c(cc2O)OC(C)(C)C(O)C3)ccc2c1C=CC(C)(C)O2 (stereo not drawn) | 0.129 |
| O=C1/C(=C/c2cccs2)CCC/C1=C\c1cccs1 | 0.12 |
| C#CCCCCCCCCCCCC(O)CC(O)COC(C)=O.C=CCCCCCCCCCCCC(O)CC(O)COC(C)=O (stereo not drawn) | 0.182 |
| C[C@H]1c2cccc(O)c2C(=O)C2=C(O)[C@]3(O)C(=O)C(C(N)=O)=C(O)[C@@H](N(C)C)[C@@H]3[C@@H](O)[C@@H]21 | 0 |
| COc1cc([C@@H]2c3cc4c(cc3[C@H](O)[C@H]3COC(=O)[C@@H]23)OCO4)cc(OC)c1OC | 0.167 |
| CCCC(C)C1(CC)C(=O)NC(=S)NC1=O (stereo not drawn) | 0.215 |
| C=CC(C1=CC(=O)C(OC)=CC1=O)c1ccccc1 (stereo not drawn) | 0.341 |
| Clc1ccc(C(Cn2ccnc2)OCc2ccsc2Cl)c(Cl)c1 (stereo not drawn) | 0.0333 |
| C[C@](N)(Cc1ccc(O)c(O)c1)C(=O)O | 0.224 |
| COc1cc(C(=O)NCc2ccc(OCCN(C)C)cc2)cc(OC)c1OC | 0.027 |
| O=C(O)C1CC([C@@H]2CCCCN2)CN2CCCCC12 (stereo partly drawn) | 0.2 |
| C[C@@H]1CC[C@H]2[C@](C)(CO)[C@@H](O)CC[C@]2(C)[C@@]12CC[C@@](CO)(CCO)O2 | 0.125 |
| O=c1cc(CO)occ1O | 0.178 |
| CN1CC(=O)N2[C@H](c3ccc4c(c3)OCO4)c3[nH]c4ccccc4c3C[C@@H]2C1=O | 0 |

Quoted from the listing for reference:

| Compound | fraction of eclosed F1 progeny that are homozygous ATM8 |
| --- | --- |
| COc1ccc2c(c1)c(CC(=O)O)c(C)n2C(=O)c1ccc(Cl)cc1 | 0.156 |
| Nc1nc2ccc(OC(F)(F)F)cc2s1 | 0 |
